Test results from article doi:10.1101/2025.05.04.652104.
No constants are given. Whether binding was seen depends on the method and setting. Sequences can lack the tags named with a protein.

Molecular target: recombinant full-length human Sialin, FLAG-tagged (human) (UniProt Q9NRA2)
Assay: cryo-EM micrographs and 2D classification

B1: recombinant full-length human Sialin, FLAG-tagged (protein, UniProt Q9NRA2 1-495)
chain: MRSPVRDLARNDGEESTDRTPLLPGAPRAEAAPVCCSARYNLAILAFFGFFIVYALRVNLSVALVDMVDSNTTLEDNRTSKACPEHSAPIKVHHNQTGKKYQWDAETQGWILGSFFYGYIITQIPGGYVASKIGGKMLLGFGILGTAVLTLFTPIAADLGVGPLIVLRALEGLGEGVTFPAMHAMWSSWAPPLERSKLLSISYAGAQLGTVISLPLSGIICYYMNWTYVFYFFGTIGIFWFLLWIWLVSDTPQKHKRISHYEKEYILSSLRNQLSSQKSVPWVPILKSLPLWAIVVAHFSYNWTFYTLLTLLPTYMKEILRFNVQENGFLSSLPYLGSWLCMILSGQAADNLRAKWNFSTLCVRRIFSLIGMIGPAVFLVAAGFIGCDYSLAVAFLTISTTLGGFCSSGFSINHLDIAPSYAGILLGITNTFATIPGMVGPVIAKSLTPDNTVGEWQTVFYIAAAINVFGAIFFTLFAKGEVQNWALNDHHGHRH
In the case of B1, the binding is reported as “no binding”.
